Results taken from publication PMC4577729, “7-(Pyrazol-4-yl)-3H-imidazo[4,5-b]pyridine-based derivatives for kinase inhibition: Co-crystallisation studies with Aurora-A reveal distinct differences in the orientation of the pyrazole N1-substituent” (Bioorganic & Medicinal Chemistry Letters, 2015).

Test: In vivo mouse pharmacokinetic profiling

SMILES | clearance | volume of distribution
Cc1nn(C)cc1-c1nc2c(-c3cnn(Cc4ccc(Cl)cc4)c3)c(Cl)cnc2[nH]1 | 0.016 L/h and 13.3 mL/min/kg | 0.02 L and 1.0 L/kg
Cc1nn(C)cc1-c1nc2c(-c3cnn(Cc4ccccc4)c3)c(Cl)cnc2[nH]1 [Compound 7a] | 0.012 L/h and 10.0 mL/min/kg | 0.01 L and 0.5 L/kg

Some entries of the source have several records that differ or are many. This list holds those alone. The source may hold further records. Results that share an entry read as repeated measurements on other runs, samples or individuals.
